Laboratory results reported in US20190041402A1 (GOVERNING COUNCIL OF THE UNIVERSITY OF TORONTO, published 2019).

These binders were tested against biotinylated αKlotho (aa1-549) (assay: capture ELISA, IgG coated, biotinylated αKlotho aa1-549).

binding | Binder
binds | anti-αKlotho clone 4831 full length IgG (antibody, V domains shown) VH: EVQLVESGGGLVQPGGSLRLSCAASGFNIYSSSIHWVRQAPGKGLEWVASIYPYSGYTYYADSVKGRFTISADTSKNTAYLQMNSLRAEDTAVYYCARYSWGSSFWPGYGFDYWGQGTLVTVSS VL: DIQMTQSPSSLSASVGDRVTITCRASQSVSSAVAWYQQKPGKAPKLLIYSASSLYSGVPSRFSGSRSGTDFTLTISSLQPEDFATYYCQQYSYYYASPITFGQGTKVEIKR
no binding (tested: 20 ng) | sb106 IgG (antibody, V domains shown, also called sb106 (48) full length IgG) VH: EVQLVESGGGLVQPGGSLRLSCAASGFNISYYSIHWVRQAPGKGLEWVAYISPSYGYTSYADSVKGRFTISADTSKNTAYLQMNSLRAEDTAVYYCARYYVYASHGWAGYGMDYWGQGTLVTVSS VL: DIQMTQSPSSLSASVGDRVTITCRASQSVSSAVAWYQQKPGKAPKLLIYSASSLYSGVPSRFSGSRSGTDFTLTISSLQPEDFATYYCQQAGYSPITFGQGTKVEIKR
no binding (tested: 20 ng) | anti-αKlotho clone 4808 full length IgG (antibody, V domains shown) VH: EVQLVESGGGLVQPGGSLRLSCAASGFNFSSSSIHWVRQAPGKGLEWVASISSSYGYTYYADSVKGRFTISADTSKNTAYLQMNSLRAEDTAVYYCARPYSAYYWAWYGPGGALDYWGQGTLVTVSS VL: DIQMTQSPSSLSASVGDRVTITCRASQSVSSAVAWYQQKPGKAPKLLIYSASSLYSGVPSRFSGSRSGTDFTLTISSLQPEDFATYYCQQSSYSLITFGQGTKVEIKR

These are yes or no findings as the source states them, for the method shown. Binding can be weak; no strength is given.
